The source of these data is paper PMC10831936 (iScience, 2024).

The subject of one assay is ERBB4. To be noted: read-out: IC50_Literature, ERBB4; phospho-WB, Tyr1284-phosphorylation of ERBB4 in primary murine cortical neurons; ref Kobayashi et al., 2019; cited from earlier work.
In a further assay the test system is ERBB4 NFAT. The assay can be described thus: ERBBprofiler barcoded NFAT pathway sensor, ERBB4 co-transfected. In kind it is cell-based, Rattus norvegicus. To be noted: PC12 cells; constant EGF 30 ng/mL, EGFld 10 ng/mL, serotonin 1 μM; 6 h; barcode readout; relative IC50.
The test system of the next assay is EGFR. To be noted: read-out: IC50_Literature, EGFR; phospho-WB, Tyr1173-phosphorylation of EGFR in U87MG cells; ref Kobayashi et al., 2019; cited from earlier work.
In another assay the test system is EGFR CRE. Nature of the assay: ERBBprofiler barcoded CRE pathway sensor, EGFR co-transfected. To be noted: Rattus norvegicus, PC-12, 6 h, read-out: EGFR CRE IC50.
Another assay concerns EGFR NFAT. The assay can be described thus: ERBBprofiler barcoded NFAT pathway sensor, EGFR co-transfected. In kind it is cell-based, Rattus norvegicus. The following applies: PC12 cells; constant EGF 30 ng/mL, EGFld 10 ng/mL, serotonin 1 μM; 6 h; barcode readout; relative IC50.
The test system of another assay is Ca2+. To be noted: read-out: IC50_Literature, Ca2+; Fluo-4 signals in serotonin receptors expressing HEK293 cells; ref Röser et al., 2012; cited from earlier work.
The next assay relates to ERBB4 CRE. Nature of the assay: ERBBprofiler barcoded CRE pathway sensor, ERBB4 co-transfected. The following applies: Rattus norvegicus, PC-12, 6 h, read-out: ERBB4 CRE IC50.

Take `CN1CCN(C2=Nc3cc(Cl)ccc3Nc3ccccc32)CC1` [Clozapine]: the IC50 was 16000 nM in the assay on ERBB4; 47000 nM with EGFR; 8.39 nM in the assay on EGFR CRE; 80 nM in the assay with Ca2+; 30.8 nM with ERBB4 CRE. In addition, the “ERBB4 NFAT IC50” value with ERBB4 NFAT is “no effect (EGFR, ERBB2/3, ERBB4), 0.053 µM (HTR2A)”. Besides, the “EGFR NFAT IC50” value in the assay on EGFR NFAT is “no effect (EGFR, ERBB2/3, ERBB4), 0.053 µM (HTR2A)”.
